{
  "source": "the supplement of paper PMC8728848",
  "binders": {"B1": {"name": "AT3G44510(29) (Arabidopsis thaliana), F4J341 (protein)", "chain": "MEEHLQGRIKLHDGRYLAYKERGVPKDDAKFTIVLVHGFGSSKDMNFNVSQELVNEIGIYFVLYDRAGYGESDPNPKRSLKSEAYDVQELADGLEIGSRFYLIGISMGSYTVWSCLKHIPQRLAGVAMVAPVVNFRWPSIPKSLMPKDYRREVAKWSVWIANYFPGLLQWLVTQNMFSTTSMLEKNPVYFNDQDIEVLKHIKGFPMLTKEKLRERGVFGTLRSDFLVAFGDWDFDPADLPDPSLSGPEKGSSSVHIWQGYEDKVMPFQLQRCLCRKLPWIRYHEVPKGGHLIVHYDGICDAILKSLLLGEDLPMYKPKAVITEPA"}},
  "test_in_all_cases": "glycan array binding signal (z-score within array); higher = stronger binding",
  "details_in_all_cases": "glycan notation: IUPAC condensed, linker removed",
  "key": {"[1]": {"biological_target": "Neu5Ac(a2-3)Gal(b1-4)GlcNAc(b1-3)Gal(b1-4)GlcNAc(b1-2)Man(a1-3)[Neu5Ac(a2-3)Gal(b1-4)GlcNAc(b1-3)Gal(b1-4)GlcNAc(b1-2)Man(a1-6)]Man(b1-4)GlcNAc(b1-4)GlcNAc", "outline": "(§1)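 The Consortium for Functional Glycomics database supplied 3228 glycan arrays, of which those lacking an available protein sequence were dropped. The binding signal, a within-array Z-score, was averaged across arrays of the same protein sequence and across linkers. Negative scores can be read as non-binding.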"}, "[2]": {"biological_target": "Neu5Ac(a2-3)Gal(b1-4)GlcNAc(b1-3)Gal(b1-4)GlcNAc(b1-3)Gal(b1-4)GlcNAc", "outline": "as §1"}, "[3]": {"biological_target": "Neu5Ac(a2-3)Gal(b1-4)GlcNAc(b1-3)Gal(b1-4)GlcNAc(b1-3)Gal(b1-4)GlcNAc(b1-2)Man(a1-3)[Neu5Ac(a2-3)Gal(b1-4)GlcNAc(b1-3)Gal(b1-4)GlcNAc(b1-3)Gal(b1-4)GlcNAc(b1-2)Man(a1-6)]GalNAc", "outline": "as §1"}, "[4]": {"biological_target": "Neu5Ac(a2-3)Gal(b1-4)GlcNAc(b1-3)Gal(b1-4)GlcNAc(b1-3)GalNAc", "outline": "as §1"}, "[5]": {"biological_target": "Neu5Ac(a2-3)Gal(b1-4)GlcNAc(b1-3)Gal(b1-4)GlcNAc(b1-3)[Neu5Ac(a2-3)Gal(b1-4)GlcNAc(b1-3)Gal(b1-4)GlcNAc(b1-6)]GalNAc", "outline": "as §1"}, "[6]": {"biological_target": "Neu5Ac(a2-3)Gal(b1-4)GlcNAc(b1-3)Gal(b1-4)GlcNAc(b1-6)[Gal(b1-3)]GalNAc", "outline": "as §1"}, "[7]": {"biological_target": "Neu5Ac(a2-3)Gal(b1-4)GlcNAc(b1-3)Gal(b1-4)[Fuc(a1-3)]GlcNAc", "outline": "as §1"}, "[8]": {"biological_target": "Neu5Ac(a2-3)Gal(b1-4)GlcNAc(b1-3)GalNAc", "outline": "as §1"}, "[9]": {"biological_target": "Neu5Ac(a2-3)Gal(b1-4)GlcNAc(b1-3)[Neu5Ac(a2-3)Gal(b1-4)GlcNAc(b1-6)]GalNAc", "outline": "as §1"}, "[10]": {"biological_target": "Neu5Ac(a2-3)Gal(b1-4)GlcNAc(b1-6)GalNAc", "outline": "as §1"}, "[11]": {"biological_target": "Neu5Ac(a2-3)Gal(b1-4)GlcNAc(b1-6)[Gal(b1-3)]GalNAc", "outline": "as §1"}, "[12]": {"biological_target": "Neu5Ac(a2-3)Gal(b1-4)GlcNAc(b1-6)[Neu5Ac(a2-3)Gal(b1-3)]GalNAc", "outline": "as §1"}, "[13]": {"biological_target": "Neu5Ac(a2-3)Gal(b1-4)GlcNAc6S", "outline": "as §1"}, "[14]": {"biological_target": "Neu5Ac(a2-3)Gal(b1-4)[Fuc(a1-3)]GlcNAc", "outline": "as §1"}, "[15]": {"biological_target": "Neu5Ac(a2-3)Gal(b1-4)[Fuc(a1-3)]GlcNAc(b1-2)Man", "outline": "as §1"}, "[16]": {"biological_target": "Neu5Ac(a2-3)Gal(b1-4)[Fuc(a1-3)]GlcNAc(b1-3)Gal", "outline": "as §1"}, "[17]": {"biological_target": "Neu5Ac(a2-3)Gal(b1-4)[Fuc(a1-3)]GlcNAc(b1-3)Gal(b1-4)GlcNAc", "outline": "as §1"}, "[18]": {"biological_target": "Neu5Ac(a2-3)Gal(b1-4)[Fuc(a1-3)]GlcNAc(b1-3)Gal(b1-4)[Fuc(a1-3)]GlcNAc(b1-3)Gal(b1-4)[Fuc(a1-3)]GlcNAc", "outline": "as §1"}, "[19]": {"biological_target": "Neu5Ac(a2-3)Gal(b1-4)[Fuc(a1-3)]GlcNAc(b1-3)GalNAc", "outline": "as §1"}, "[20]": {"biological_target": "Neu5Ac(a2-3)Gal(b1-4)[Fuc(a1-3)]GlcNAc(b1-6)[Gal(b1-3)]GalNAc", "outline": "as §1"}, "[21]": {"biological_target": "Neu5Ac(a2-3)Gal(b1-4)[Fuc(a1-3)]GlcNAc(b1-6)[Neu5Ac(a2-3)Gal(b1-3)]GalNAc", "outline": "as §1"}, "[22]": {"biological_target": "Neu5Ac(a2-3)Gal(b1-4)[Fuc(a1-3)]GlcNAc6S", "outline": "as §1"}, "[23]": {"biological_target": "Neu5Ac(a2-3)Gal6S(b1-4)GlcNAc", "outline": "as §1"}, "[24]": {"biological_target": "Neu5Ac(a2-3)Gal6S(b1-4)[Fuc(a1-3)]GlcNAc", "outline": "as §1"}, "[25]": {"biological_target": "Neu5Ac(a2-3)GalNAc", "outline": "as §1"}, "[26]": {"biological_target": "Neu5Ac(a2-3)GalNAc(b1-4)GlcNAc", "outline": "as §1"}, "[27]": {"biological_target": "Neu5Ac(a2-3)[GalNAc(b1-4)]Gal(b1-4)Glc", "outline": "as §1"}, "[28]": {"biological_target": "Neu5Ac(a2-3)[GalNAc(b1-4)]Gal(b1-4)GlcNAc", "outline": "as §1"}, "[29]": {"biological_target": "Neu5Ac(a2-3)[GalNAc(b1-4)]Gal(b1-4)GlcNAc(b1-3)GalNAc", "outline": "as §1"}, "[30]": {"biological_target": "Neu5Ac(a2-3)[Neu5Ac(a2-6)]GalNAc", "outline": "as §1"}, "[31]": {"biological_target": "Neu5Ac(a2-6)Gal", "outline": "as §1"}, "[32]": {"biological_target": "Neu5Ac(a2-6)Gal(b1-3)GlcNAc(b1-3)[Gal(b1-4)GlcNAc(b1-6)]Gal(b1-4)Glc", "outline": "as §1"}, "[33]": {"biological_target": "Neu5Ac(a2-6)Gal(b1-4)Glc", "outline": "as §1"}, "[34]": {"biological_target": "Neu5Ac(a2-6)Gal(b1-4)GlcNAc", "outline": "as §1"}, "[35]": {"biological_target": "Neu5Ac(a2-6)Gal(b1-4)GlcNAc(b1-2)Man", "outline": "as §1"}, "[36]": {"biological_target": "Neu5Ac(a2-6)Gal(b1-4)GlcNAc(b1-2)Man(a1-3)Man(b1-4)GlcNAc(b1-4)GlcNAc", "outline": "as §1"}, "[37]": {"biological_target": "Neu5Ac(a2-6)Gal(b1-4)GlcNAc(b1-2)Man(a1-3)[Gal(b1-4)GlcNAc(b1-2)Man(a1-6)]Man(b1-4)GlcNAc(b1-4)GlcNAc", "outline": "as §1"}, "[38]": {"biological_target": "Neu5Ac(a2-6)Gal(b1-4)GlcNAc(b1-2)Man(a1-3)[GlcNAc(b1-2)Man(a1-6)]Man(b1-4)GlcNAc(b1-4)GlcNAc", "outline": "as §1"}},
  "note": "The other results are listed elsewhere or left out.",
  "data": [
    {"binder": "B1", "values": [
      {"measurement": "glycan array binding signal (z-score)", "setting": "[1]", "result": -0.8},
      {"measurement": "glycan array binding signal (z-score)", "setting": "[2]", "result": -0.657},
      {"measurement": "glycan array binding signal (z-score)", "setting": "[3]", "result": 0.29},
      {"measurement": "glycan array binding signal (z-score)", "setting": "[4]", "result": -0.224},
      {"measurement": "glycan array binding signal (z-score)", "setting": "[5]", "result": -0.442},
      {"measurement": "glycan array binding signal (z-score)", "setting": "[6]", "result": -0.343},
      {"measurement": "glycan array binding signal (z-score)", "setting": "[7]", "result": -0.1},
      {"measurement": "glycan array binding signal (z-score)", "setting": "[8]", "result": -0.249},
      {"measurement": "glycan array binding signal (z-score)", "setting": "[9]", "result": -0.474},
      {"measurement": "glycan array binding signal (z-score)", "setting": "[10]", "result": -0.429},
      {"measurement": "glycan array binding signal (z-score)", "setting": "[11]", "result": -0.457},
      {"measurement": "glycan array binding signal (z-score)", "setting": "[12]", "result": -0.853},
      {"measurement": "glycan array binding signal (z-score)", "setting": "[13]", "result": -0.36},
      {"measurement": "glycan array binding signal (z-score)", "setting": "[14]", "result": -0.331},
      {"measurement": "glycan array binding signal (z-score)", "setting": "[15]", "result": -0.046},
      {"measurement": "glycan array binding signal (z-score)", "setting": "[16]", "result": -0.706},
      {"measurement": "glycan array binding signal (z-score)", "setting": "[17]", "result": 1.04},
      {"measurement": "glycan array binding signal (z-score)", "setting": "[18]", "result": 0.047},
      {"measurement": "glycan array binding signal (z-score)", "setting": "[19]", "result": 1.12},
      {"measurement": "glycan array binding signal (z-score)", "setting": "[20]", "result": 0.133},
      {"measurement": "glycan array binding signal (z-score)", "setting": "[21]", "result": -0.199},
      {"measurement": "glycan array binding signal (z-score)", "setting": "[22]", "result": 0.419},
      {"measurement": "glycan array binding signal (z-score)", "setting": "[23]", "result": 1.08},
      {"measurement": "glycan array binding signal (z-score)", "setting": "[24]", "result": -0.314},
      {"measurement": "glycan array binding signal (z-score)", "setting": "[25]", "result": 1.08},
      {"measurement": "glycan array binding signal (z-score)", "setting": "[26]", "result": -0.26},
      {"measurement": "glycan array binding signal (z-score)", "setting": "[27]", "result": -0.393},
      {"measurement": "glycan array binding signal (z-score)", "setting": "[28]", "result": -0.12},
      {"measurement": "glycan array binding signal (z-score)", "setting": "[29]", "result": 0.557},
      {"measurement": "glycan array binding signal (z-score)", "setting": "[30]", "result": 0.401},
      {"measurement": "glycan array binding signal (z-score)", "setting": "[31]", "result": -0.251},
      {"measurement": "glycan array binding signal (z-score)", "setting": "[32]", "result": 0.32},
      {"measurement": "glycan array binding signal (z-score)", "setting": "[33]", "result": -0.127},
      {"measurement": "glycan array binding signal (z-score)", "setting": "[34]", "result": -0.04},
      {"measurement": "glycan array binding signal (z-score)", "setting": "[35]", "result": 0.076},
      {"measurement": "glycan array binding signal (z-score)", "setting": "[36]", "result": -0.17},
      {"measurement": "glycan array binding signal (z-score)", "setting": "[37]", "result": 0.475},
      {"measurement": "glycan array binding signal (z-score)", "setting": "[38]", "result": -0.632}
    ]}
  ]
}
